In the supplement of paper PMC8728848:
The list shows a part of the results.

Key:
Test in all cases: glycan array binding signal (z-score within array); higher = stronger binding
Conditions in all cases: glycan notation: IUPAC condensed, linker removed
[1] = molecular target: Fuc(a1-2)Gal(b1-4)[Fuc(a1-3)]GlcNAc(b1-3)Gal(b1-4)[Fuc(a1-3)]GlcNAc
Method in brief: (§1)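 The Consortium for Functional Glycomics database supplied 3228 glycan arrays, of which those lacking an available protein sequence were dropped. The binding signal, a within-array Z-score, was averaged across arrays of the same protein sequence and across linkers. Negative scores can be read as non-binding.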

[2] = molecular target: Fuc(a1-2)Gal(b1-4)[Fuc(a1-3)]GlcNAc(b1-3)Gal(b1-4)[Fuc(a1-3)]GlcNAc(b1-3)Gal(b1-4)[Fuc(a1-3)]GlcNAc
Method in brief: as §1

[3] = molecular target: Fuc(a1-2)Gal(b1-4)[Fuc(a1-3)]GlcNAc(b1-3)GalNAc
Method in brief: as §1

[4] = molecular target: Fuc(a1-2)Gal(b1-4)[Fuc(a1-3)]GlcNAc(b1-3)[Neu5Ac(a2-6)Gal(b1-4)GlcNAc(b1-6)]Gal(b1-4)Glc
Method in brief: as §1

[5] = molecular target: Fuc(a1-2)Gal3S(b1-4)GlcNAc
Method in brief: as §1

[6] = molecular target: Fuc(a1-2)Gal6S(b1-3)GlcNAc
Method in brief: as §1

[7] = molecular target: Fuc(a1-2)Gal6S(b1-3)GlcNAc6S
Method in brief: as §1

Fuc(a1-2)Gal6S(b1-4)Glc = molecular target: Fuc(a1-2)Gal6S(b1-4)Glc
Method in brief: as §1

[8] = molecular target: Fuc(a1-2)Gal6S(b1-4)Glc6S
Method in brief: as §1

[9] = molecular target: Fuc(a1-2)Gal6S(b1-4)GlcNAc
Method in brief: as §1

Fuc(a1-2)[Gal(a1-3)]Gal = molecular target: Fuc(a1-2)[Gal(a1-3)]Gal
Method in brief: as §1

[10] = molecular target: Fuc(a1-2)[Gal(a1-3)]Gal(b1-3)GalNAc
Method in brief: as §1

[11] = molecular target: Fuc(a1-2)[Gal(a1-3)]Gal(b1-3)GalNAc(b1-3)Gal(a1-4)Gal(b1-4)Glc
Method in brief: as §1

[12] = molecular target: Fuc(a1-2)[Gal(a1-3)]Gal(b1-3)GlcNAc
Method in brief: as §1

[13] = molecular target: Fuc(a1-2)[Gal(a1-3)]Gal(b1-3)GlcNAc(b1-2)Man(a1-3)[Fuc(a1-2)[Gal(a1-3)]Gal(b1-3)GlcNAc(b1-2)Man(a1-6)]Man(b1-4)GlcNAc(b1-4)GlcNAc
Method in brief: as §1

[14] = molecular target: Fuc(a1-2)[Gal(a1-3)]Gal(b1-3)GlcNAc(b1-2)Man(a1-3)[Fuc(a1-2)[Gal(a1-3)]Gal(b1-3)GlcNAc(b1-2)Man(a1-6)]Man(b1-4)GlcNAc(b1-4)[Fuc(a1-6)]GlcNAc
Method in brief: as §1

[15] = molecular target: Fuc(a1-2)[Gal(a1-3)]Gal(b1-3)GlcNAc(b1-3)GalNAc
Method in brief: as §1

[16] = molecular target: Fuc(a1-2)[Gal(a1-3)]Gal(b1-3)GlcNAc(b1-6)GalNAc
Method in brief: as §1

[17] = molecular target: Fuc(a1-2)[Gal(a1-3)]Gal(b1-4)Glc
Method in brief: as §1

[18] = molecular target: Fuc(a1-2)[Gal(a1-3)]Gal(b1-4)GlcNAc
Method in brief: as §1

[19] = molecular target: Fuc(a1-2)[Gal(a1-3)]Gal(b1-4)GlcNAc(b1-2)Man
Method in brief: as §1

[20] = molecular target: Fuc(a1-2)[Gal(a1-3)]Gal(b1-4)GlcNAc(b1-2)Man(a1-3)[Fuc(a1-2)[Gal(a1-3)]Gal(b1-4)GlcNAc(b1-2)Man(a1-6)]Man(b1-4)GlcNAc(b1-4)GlcNAc
Method in brief: as §1

[21] = molecular target: Fuc(a1-2)[Gal(a1-3)]Gal(b1-4)GlcNAc(b1-2)Man(a1-3)[Fuc(a1-2)[Gal(a1-3)]Gal(b1-4)GlcNAc(b1-2)Man(a1-6)]Man(b1-4)GlcNAc(b1-4)[Fuc(a1-6)]GlcNAc
Method in brief: as §1

[22] = molecular target: Fuc(a1-2)[Gal(a1-3)]Gal(b1-4)GlcNAc(b1-3)GalNAc
Method in brief: as §1

[23] = molecular target: Fuc(a1-2)[Gal(a1-3)]Gal(b1-4)GlcNAc(b1-6)GalNAc
Method in brief: as §1

[24] = molecular target: Fuc(a1-2)[Gal(a1-3)]Gal(b1-4)[Fuc(a1-3)]Glc
Method in brief: as §1

[25] = molecular target: Fuc(a1-2)[Gal(a1-3)]Gal(b1-4)[Fuc(a1-3)]GlcNAc
Method in brief: as §1

[26] = molecular target: Fuc(a1-2)[Gal(a1-3)]Gal(b1-4)[Fuc(a1-3)]GlcNAc(b1-3)GalNAc
Method in brief: as §1

[27] = molecular target: Fuc(a1-2)[Gal(a1-4)]Gal(b1-4)GlcNAc
Method in brief: as §1

[28] = molecular target: Fuc(a1-2)[GalNAc(a1-3)]Gal
Method in brief: as §1

[29] = molecular target: Fuc(a1-2)[GalNAc(a1-3)]Gal(b1-3)GalNAc(a1-3)[Fuc(a1-2)]Gal(b1-4)GlcNAc
Method in brief: as §1

[30] = molecular target: Fuc(a1-2)[GalNAc(a1-3)]Gal(b1-3)GalNAc(b1-3)Gal(a1-4)Gal(b1-4)Glc
Method in brief: as §1

[31] = molecular target: Fuc(a1-2)[GalNAc(a1-3)]Gal(b1-3)GlcNAc
Method in brief: as §1

[32] = molecular target: Fuc(a1-2)[GalNAc(a1-3)]Gal(b1-3)GlcNAc(b1-2)Man(a1-3)[Fuc(a1-2)[GalNAc(a1-3)]Gal(b1-3)GlcNAc(b1-2)Man(a1-6)]Man(b1-4)GlcNAc(b1-4)GlcNAc
Method in brief: as §1

[33] = molecular target: Fuc(a1-2)[GalNAc(a1-3)]Gal(b1-3)GlcNAc(b1-2)Man(a1-3)[Fuc(a1-2)[GalNAc(a1-3)]Gal(b1-3)GlcNAc(b1-2)Man(a1-6)]Man(b1-4)GlcNAc(b1-4)[Fuc(a1-6)]GlcNAc
Method in brief: as §1

[34] = molecular target: Fuc(a1-2)[GalNAc(a1-3)]Gal(b1-3)GlcNAc(b1-3)GalNAc
Method in brief: as §1

[35] = molecular target: Fuc(a1-2)[GalNAc(a1-3)]Gal(b1-3)GlcNAc(b1-6)GalNAc
Method in brief: as §1

[36] = molecular target: Fuc(a1-2)[GalNAc(a1-3)]Gal(b1-4)Glc
Method in brief: as §1

[37] = molecular target: Fuc(a1-2)[GalNAc(a1-3)]Gal(b1-4)GlcNAc
Method in brief: as §1

[38] = molecular target: Fuc(a1-2)[GalNAc(a1-3)]Gal(b1-4)GlcNAc(b1-2)Man
Method in brief: as §1

[39] = molecular target: Fuc(a1-2)[GalNAc(a1-3)]Gal(b1-4)GlcNAc(b1-2)Man(a1-3)[Fuc(a1-2)[GalNAc(a1-3)]Gal(b1-4)GlcNAc(b1-2)Man(a1-6)]Man(b1-4)GlcNAc(b1-4)GlcNAc
Method in brief: as §1

[40] = molecular target: Fuc(a1-2)[GalNAc(a1-3)]Gal(b1-4)GlcNAc(b1-2)Man(a1-3)[Fuc(a1-2)[GalNAc(a1-3)]Gal(b1-4)GlcNAc(b1-2)Man(a1-6)]Man(b1-4)GlcNAc(b1-4)[Fuc(a1-6)]GlcNAc
Method in brief: as §1

[41] = molecular target: Fuc(a1-2)[GalNAc(a1-3)]Gal(b1-4)GlcNAc(b1-3)Gal(b1-4)GlcNAc
Method in brief: as §1

[42] = molecular target: Fuc(a1-2)[GalNAc(a1-3)]Gal(b1-4)GlcNAc(b1-3)Gal(b1-4)GlcNAc(b1-3)Gal(b1-4)GlcNAc
Method in brief: as §1

[43] = molecular target: Fuc(a1-2)[GalNAc(a1-3)]Gal(b1-4)GlcNAc(b1-3)GalNAc
Method in brief: as §1

B1: Gal 10 (Homo sapiens), Q05315 (protein)
chain: MSLLPVPYTEAASLSTGSTVTIKGRPLVCFLNEPYLQVDFHTEMKEESDIVFHFQVCFGRRVVMNSREYGAWKQQVESKNMPFQDGQEFELSISVLPDKYQVMVNGQSSYTFDHRIKPEAVKMVQVWRDISLTKFNVSYLKR
- glycan array binding signal (z-score) [1]: -1.35
- glycan array binding signal (z-score) [2]: 1.07
- glycan array binding signal (z-score) [3]: 2.13
- glycan array binding signal (z-score) [4]: -0.624
- glycan array binding signal (z-score) [5]: -0.518
- glycan array binding signal (z-score) [6]: -0.264
- glycan array binding signal (z-score) [7]: 0.571
- glycan array binding signal (z-score) (Fuc(a1-2)Gal6S(b1-4)Glc): 1.38
- glycan array binding signal (z-score) [8]: -0.097
- glycan array binding signal (z-score) [9]: -0.128
- glycan array binding signal (z-score) (Fuc(a1-2)[Gal(a1-3)]Gal): -0.332
- glycan array binding signal (z-score) [10]: 1.32
- glycan array binding signal (z-score) [11]: -0.636
- glycan array binding signal (z-score) [12]: 0.328
- glycan array binding signal (z-score) [13]: -0.66
- glycan array binding signal (z-score) [14]: 0.543
- glycan array binding signal (z-score) [15]: -0.445
- glycan array binding signal (z-score) [16]: -0.063
- glycan array binding signal (z-score) [17]: -0.179
- glycan array binding signal (z-score) [18]: -0.644
- glycan array binding signal (z-score) [19]: -0.269
- glycan array binding signal (z-score) [20]: 0.256
- glycan array binding signal (z-score) [21]: 1.39
- glycan array binding signal (z-score) [22]: -0.339
- glycan array binding signal (z-score) [23]: 1.28
- glycan array binding signal (z-score) [24]: -0.338
- glycan array binding signal (z-score) [25]: -0.426
- glycan array binding signal (z-score) [26]: -0.183
- glycan array binding signal (z-score) [27]: -0.389
- glycan array binding signal (z-score) [28]: -0.25
- glycan array binding signal (z-score) [29]: -0.923
- glycan array binding signal (z-score) [30]: -0.64
- glycan array binding signal (z-score) [31]: 0.276
- glycan array binding signal (z-score) [32]: 0.476
- glycan array binding signal (z-score) [33]: -0.105
- glycan array binding signal (z-score) [34]: 0.64
- glycan array binding signal (z-score) [35]: 0.016
- glycan array binding signal (z-score) [36]: -0.504
- glycan array binding signal (z-score) [37]: -0.397
- glycan array binding signal (z-score) [38]: -0.035
- glycan array binding signal (z-score) [39]: -0.132
- glycan array binding signal (z-score) [40]: 0.6
- glycan array binding signal (z-score) [41]: -0.116
- glycan array binding signal (z-score) [42]: 0.348
- glycan array binding signal (z-score) [43]: 1.76
